# Experimental data published in PubChem BioAssay AID1347131 (National Center for Advancing Translational Sciences (NCATS), 2019).
# Out of some 410,000 compounds screened, about 2,000 (0.49%) were called active. The shares of active, inactive and inconclusive entries below differ from those in the screen. Calls follow the shape of the full dose curve; tested in HEK293 reporter line. Potencies beside an inconclusive call are fits to weak or partial responses and may not hold up.
# Test: qHTS Assay for Foot and Mouth Disease Virus Antivirals: Primary Screen against the MLPCN compound library; also: nearly all actives have a fitted effect of over 55% in size
# Details: FMDV antiviral cell-based qHTS; activity, negative = inhibition: at 57.9 µM (top of the series)
# Potency is read from the fitted curve at half-maximal effect.
Structure (SMILES),Potency,"activity, negative = inhibition"
O=C(/C=C/Nc1ccc(F)cc1F)c1ccco1,active: 10 µM,–
COC(OC)c1ccnc(-c2ccc(OC(=O)c3ccc(F)cc3)cc2)n1,–,inactive: -38.9%
CC(C)(C)[C@@H]1C=C(C(=O)NC2CC2)O[C@H](OCc2ccc(CO)cc2)C1,"inconclusive: 11.2 µM [inhibitor, partial curve, poor fit]",–
COc1ccc2cc(CNCCOCCOCCNCc3ccc4cc(OC)ccc4c3)ccc2c1,"inconclusive: 39.8 µM [inhibitor, partial curve, poor fit]",–
COc1cc(/C=C/C(=O)c2ccc(O)cc2)ccc1OCC#N,"inconclusive: 28.2 µM [inhibitor, partial curve, poor fit]",–
NC(=O)c1cc([N+](=O)[O-])c(Cl)cc1NCc1ccccn1,"inconclusive: 8.91 µM [inhibitor, partial curve, poor fit]",–
Cc1oc(-c2ccc(Cl)cc2)nc1CS(=O)CC(=O)NCCCN1CCN(Cc2ccccc2)CC1 (stereo not drawn),"inconclusive: 10 µM [inhibitor, partial curve]",–
COc1nc(-c2ccccc2)c2c(c1C#N)CC(C)(C)OC2,"inconclusive: 15.8 µM [inhibitor, partial curve, poor fit]",–
CCOC(=O)C(Cc1ccnc2ccccc12)=NO,"inconclusive: 12.6 µM [inhibitor, partial curve]",–
CCOC(=O)N1CCN(C(=O)c2ccc3c(c2)NC(=O)C(N2CCOCC2)S3)CC1 (stereo not drawn),"inconclusive: 39.8 µM [inhibitor, partial curve, poor fit]",–
Oc1ccccc1-[n+]1c(-c2ccccc2)cc(-c2ccccc2)cc1-c1ccccc1,"inconclusive: 28.2 µM [inhibitor, single point]",–
COC(=O)Cc1[nH]nc2c1C(C1C=CCCC1)C(C#N)=C(N)O2 (stereo not drawn),"inconclusive: 15.8 µM [inhibitor, partial curve, poor fit]",–
CCCCn1c(=O)nc2n(-c3ccccc3)c3ccccc3cc-2c1=O,"inconclusive: 15.8 µM [inhibitor, partial curve]",–
CCOC(=O)C1CCCN(S(=O)(=O)c2cc3c(cc2Cl)NC(=O)CO3)C1 (stereo not drawn),–,inactive: -31%
C(=C\c1nc2ccccc2[nH]1)/c1ccccc1,"inconclusive: 15.8 µM [inhibitor, partial curve, poor fit]",–
O=C(CSc1nnnn1C1CC2CCC1C2)Nc1ccnc2ccccc12 (stereo not drawn),"inconclusive: 39.8 µM [inhibitor, single point]",–
CC(=O)N1N=C(c2cccs2)CC1c1cccc([N+](=O)[O-])c1 (stereo not drawn),"inconclusive: 14.1 µM [inhibitor, partial curve, poor fit]",–
Cc1cc(C)n(CCNC(=O)c2cc(COc3ccc4ncccc4c3)on2)n1,"inconclusive: 12.6 µM [inhibitor, partial curve, poor fit]",–
COc1cc(C(=O)NCC2CCCO2)ccc1OCc1ccc(Cl)cc1Cl (stereo not drawn),"inconclusive: 17.8 µM [inhibitor, single point]",–

Structure (SMILES),Potency,"activity, negative = inhibition"
COc1c(S(=O)(=O)N2CCN(C(=O)c3ccco3)CC2)ccc(Cl)c1Cl,"inconclusive: 6.31 µM [inhibitor, partial curve, poor fit]",–
COCCn1c(C)cc(C(=O)COC(=O)c2cccc(O)c2)c1C,"inconclusive: 11.2 µM [inhibitor, partial curve, poor fit]",–
O=C1c2ccccc2C(=O)C1c1nccc2ccccc12,"inconclusive: 10 µM [inhibitor, partial curve, poor fit]",–
CC1COCC(C)N1C1=C(Cl)C(=O)c2ccccc2C1=O (stereo not drawn),"inconclusive: 39.8 µM [inhibitor, single point]",–
CCOc1cc(/C=C\c2[nH]c(=O)[nH]c(=O)c2[N+](=O)[O-])ccc1OC(C)CC (stereo not drawn),"inconclusive: 8.91 µM [inhibitor, partial curve, poor fit]",–
O=C(/C=C/c1ccc(O)cc1)c1ccccc1O,"inconclusive: 39.8 µM [inhibitor, single point]",–
CNc1oc(-c2ccc(Cl)cc2)nc1P(=O)(c1ccccc1)c1ccccc1,"inconclusive: 31.6 µM [inhibitor, partial curve, poor fit]",–
CC(NC1=CC(=O)c2cccnc2C1=O)C(O)c1ccccc1 (stereo not drawn),"inconclusive: 28.2 µM [inhibitor, single point]",–
O=S(=O)(N/N=C\c1ccc2c(c1)OCO2)c1ccc(Cl)cc1,–,inactive: 102%
CCc1c(-c2cccc(OC)c2)ncn1Cc1cccc(-c2ccccc2)c1,"inconclusive: 31.6 µM [inhibitor, partial curve, poor fit]",–
Cc1ccc(C2(C)NC(=O)N(CC(=O)N(c3ccccc3)C3CCS(=O)(=O)C3)C2=O)cc1 (stereo not drawn),"inconclusive: 7.94 µM [inhibitor, partial curve, poor fit]",–
CCCn1c(CC)nc([N+](=O)[O-])c1Sc1ccc(F)cc1,"inconclusive: 17.8 µM [inhibitor, partial curve, poor fit]",–
Cc1csc2c(N3CCN(C(=O)Nc4ccccc4)CC3)ncnc12,"inconclusive: 22.4 µM [inhibitor, partial curve, poor fit]",–
Cc1cccc(N/N=C(\C(N)=O)C2=NC(C)(C)Cc3ccccc32)c1,"inconclusive: 25.1 µM [inhibitor, partial curve, poor fit]",–
O=C(COc1ccccc1)Nc1nc(-c2ccc(S(=O)(=O)N3CCOCC3)cc2)cs1,"inconclusive: 14.1 µM [inhibitor, partial curve, poor fit]",–
O=C(CCl)N(Cc1cc(=O)[nH]c2ccccc12)c1ccccc1,"inconclusive: 14.1 µM [inhibitor, partial curve, poor fit]",–
CC(C)(C)NC(=O)NC(=O)CN1CCN(C(c2ccccc2)c2ccccc2)CC1,–,inactive: -40.2%
O=P1(Oc2ccccc2)OCCCS1 (stereo not drawn),"inconclusive: 35.5 µM [inhibitor, partial curve, poor fit]",–
COc1ccc2c(C(=O)CCl)c[nH]c2c1,"inconclusive: 35.5 µM [inhibitor, single point]",–

# An excerpt from above in order of formula weight, ascending:
Structure (SMILES),Potency,"activity, negative = inhibition"
COc1ccc2c(C(=O)CCl)c[nH]c2c1,"inconclusive: 35.5 µM [inhibitor, single point]",–
O=C(/C=C/c1ccc(O)cc1)c1ccccc1O,"inconclusive: 39.8 µM [inhibitor, single point]",–
CC1COCC(C)N1C1=C(Cl)C(=O)c2ccccc2C1=O (stereo not drawn),"inconclusive: 39.8 µM [inhibitor, single point]",–
O=C(CCl)N(Cc1cc(=O)[nH]c2ccccc12)c1ccccc1,"inconclusive: 14.1 µM [inhibitor, partial curve, poor fit]",–
Cc1csc2c(N3CCN(C(=O)Nc4ccccc4)CC3)ncnc12,"inconclusive: 22.4 µM [inhibitor, partial curve, poor fit]",–
CCc1c(-c2cccc(OC)c2)ncn1Cc1cccc(-c2ccccc2)c1,"inconclusive: 31.6 µM [inhibitor, partial curve, poor fit]",–
CNc1oc(-c2ccc(Cl)cc2)nc1P(=O)(c1ccccc1)c1ccccc1,"inconclusive: 31.6 µM [inhibitor, partial curve, poor fit]",–
Cc1ccc(C2(C)NC(=O)N(CC(=O)N(c3ccccc3)C3CCS(=O)(=O)C3)C2=O)cc1 (stereo not drawn),"inconclusive: 7.94 µM [inhibitor, partial curve, poor fit]",–
